Values from PubChem BioAssay AID602196 (INSERM, 2012).
Aim: 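Genes whose knock-down alters cisplatin killing of lung cancer cells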. Cells: human A549 lung cancer cells. Reagents: siRNA pair against human genes. Duration: 48 h transfection before cisplatin; time from cisplatin to read-out not stated. Conditions: cisplatin at a dose killing half of control-siRNA cells; exact dose and duration not given. Measured: 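Shift in cisplatin death relative to control siRNA, from -50 (all cells die) to +50 (no cells die); siRNAs harmful on their own scored 0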. Reading the numbers: two-siRNA summed score (-2 to +2): higher = both siRNAs protect from cisplatin killing; -2 means both sensitise; mean protection from cisplatin (shift in death) and protection from cisplatin (shift in death), siRNA C and protection from cisplatin (shift in death), siRNA D: higher = protection from cisplatin killing. Rule for the call: 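siRNAs harmful alone (LDH or WST-1) get 0; others get +1 for less and -1 for more cisplatin killing; genes are active when the two siRNAs give the same sign, summing to ±2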. Meaning of the calls: active = both siRNAs shift cisplatin killing the same way; inactive = no consistent shift, or siRNA harmful alone.
This is an unselected part of about 23,000 reagents. Of all reagents, 455 (2%) got an active call. 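Active includes both protection and sensitisation; some change values fall well beyond the stated -50 to +50 range.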 Not given: the amount of reagent.

no.	target gene	two-siRNA summed score (-2 to +2)	mean protection from cisplatin (shift in death) (%)	protection from cisplatin (shift in death), siRNA C (%)	protection from cisplatin (shift in death), siRNA D (%)	Outcome
1	OR10G2 (olfactory receptor family 10 subfamily G member 2)	0	-10	-4.4	-15.6	inactive
2	ART1 (ADP-ribosyltransferase 1)	0	-1.9	3	-6.7	inactive
3	OR11L1 (olfactory receptor family 11 subfamily L member 1)	1	6.3	14.7	-2.1	inactive
4	LOC440608	0	1.1	8	-5.9	inactive
5	SSTR1 (somatostatin receptor 1)	0	-2.6	6	-11.1	inactive
6	SP4 (Sp4 transcription factor)	1	17.1	25.6	8.7	inactive
7	HRAS (HRas proto-oncogene, GTPase)	0	-16.8	-29.3	-4.3	inactive
8	TIPE1 (TNF alpha induced protein 8 like 1)	0	-10.9	0	-21.9	inactive
9	LOC441836	0	9.5	4.6	14.4	inactive
10	UPK3A (uroplakin 3A)	0	6.6	16.8	-3.6	inactive
11	FAF2 (Fas associated factor family member 2)	0	6.6	14.2	-1	inactive
12	SKA1 (spindle and kinetochore associated complex subunit 1)	0	-2.6	-1.4	-3.8	inactive
13	SLC25A37	0	1	-4	6.1	inactive
14	DYRK1A	-1	-12.4	-13.6	-11.1	inactive
15	TK2 (thymidine kinase 2)	0	20.7	7.5	33.9	inactive
16	ADGRL1 (adhesion G protein-coupled receptor L1)	0	7.2	5.1	9.3	inactive
17	AIRE (autoimmune regulator)	-1	-11	7.2	-29.1	inactive
18	BEND2 (BEN domain containing 2)	2	12.2	13.3	11.2	active
19	APH1A (aph-1A gamma-secretase subunit)	-1	-15.7	-10.3	-21.2	inactive
20	PKD1L2 (polycystin 1 like 2 (gene/pseudogene))	0	31.6	39.8	23.4	inactive
21	ZUP1 (zinc finger containing ubiquitin peptidase 1)	1	20.5	30.1	10.8	inactive
22	MRFAP1L2 (Morf4 family associated protein 1 like 2)	0	-6.5	-4.4	-8.6	inactive
23	ZNF2 (zinc finger protein 2)	1	21.2	22.9	19.4	inactive
24	MYCNOS (MYCN opposite strand)	0	8.9	1.3	16.6	inactive
25	RPN2 (ribophorin II)	0	1.4	2.6	0.2	inactive
26	NOP10 (NOP10 ribonucleoprotein)	0	10.6	-0.5	21.8	inactive
27	CD7 (CD7 molecule)	0	-4.3	12.1	-20.8	inactive
28	STPG1 (sperm tail PG-rich repeat containing 1)	0	-3.8	-3.7	-3.9	inactive
29	ACP5 (acid phosphatase 5, tartrate resistant)	0	11.8	22.5	1	inactive
30	MYOM2 (myomesin 2)	-1	-11.3	-2.1	-20.4	inactive
31	CARTPT (CART prepropeptide)	0	6.2	4.8	7.7	inactive
32	MAGEA2 (MAGE family member A2)	0	3	6.9	-1	inactive
33	LOC341371	1	16	19.8	12.2	inactive
34	LOC392223	-1	5.2	-10.5	20.8	inactive
35	LOC338611	1	15.5	15	15.9	inactive
36	A1BG (alpha-1-B glycoprotein)	0	-18.2	-7.1	-29.2	inactive
37	TMEM98 (transmembrane protein 98)	0	1.5	4.5	-1.5	inactive
38	PLAC8 (placenta associated 8)	0	11.1	14.2	7.9	inactive
39	SRSF7 (serine and arginine rich splicing factor 7)	1	17.6	13.3	22	inactive
40	LOC440977	0	5.6	5.7	5.6	inactive
41	KTN1 (kinectin 1)	-2	-43.1	-27.3	-58.9	active
42	LOC389117	0	5.7	8.3	3	inactive
43	ZNF281 (zinc finger protein 281)	0	5.1	13.3	-3.1	inactive
44	DNAJB3P (DnaJ heat shock protein family (Hsp40) member B3, pseudogene)	0	12.5	3.5	21.5	inactive
45	AKT2 (AKT serine/threonine kinase 2)	0	0.6	-4	5.1	inactive
46	DDX18 (DEAD-box helicase 18)	0	-1.1	-5.5	3.3	inactive
47	GOT1L1 (glutamic-oxaloacetic transaminase 1 like 1)	0	1.3	5.5	-2.9	inactive
48	LOC144962	0	6.3	0.4	12.2	inactive
49	ZNF329 (zinc finger protein 329)	0	10.4	8.8	12	inactive
50	KCNJ1 (potassium inwardly rectifying channel subfamily J member 1)	0	-6.5	-18.9	5.8	inactive
51	MIS18BP1 (MIS18 binding protein 1)	0	3.4	7	-0.2	inactive
52	CDC6 (cell division cycle 6)	2	20.1	20.8	19.5	active
53	LOC399763	1	9.6	6.7	12.5	inactive
54	ETFRF1 (electron transfer flavoprotein regulatory factor 1)	0	-0.6	20.7	-22	inactive
55	KLHL34 (kelch like family member 34)	0	-8.5	-12.1	-5	inactive
56	DNAH10 (dynein axonemal heavy chain 10)	1	8.6	2.1	15	inactive
57	DNM1P41 (dynamin 1 pseudogene 41)	2	20.8	21.1	20.4	active

Hits, of those listed so far:
target gene	two-siRNA summed score (-2 to +2)	mean protection from cisplatin (shift in death) (%)	protection from cisplatin (shift in death), siRNA C (%)	protection from cisplatin (shift in death), siRNA D (%)	Outcome
BEND2 (BEN domain containing 2)	2	12.2	13.3	11.2	active
KTN1 (kinectin 1)	-2	-43.1	-27.3	-58.9	active
CDC6 (cell division cycle 6)	2	20.1	20.8	19.5	active
DNM1P41 (dynamin 1 pseudogene 41)	2	20.8	21.1	20.4	active
